Consider one substance from publication PMC5260874.

Chains of the proteins cited; added tags and fusions are not shown. Residues count along the entry.
UniProt P37173, residues 23-567: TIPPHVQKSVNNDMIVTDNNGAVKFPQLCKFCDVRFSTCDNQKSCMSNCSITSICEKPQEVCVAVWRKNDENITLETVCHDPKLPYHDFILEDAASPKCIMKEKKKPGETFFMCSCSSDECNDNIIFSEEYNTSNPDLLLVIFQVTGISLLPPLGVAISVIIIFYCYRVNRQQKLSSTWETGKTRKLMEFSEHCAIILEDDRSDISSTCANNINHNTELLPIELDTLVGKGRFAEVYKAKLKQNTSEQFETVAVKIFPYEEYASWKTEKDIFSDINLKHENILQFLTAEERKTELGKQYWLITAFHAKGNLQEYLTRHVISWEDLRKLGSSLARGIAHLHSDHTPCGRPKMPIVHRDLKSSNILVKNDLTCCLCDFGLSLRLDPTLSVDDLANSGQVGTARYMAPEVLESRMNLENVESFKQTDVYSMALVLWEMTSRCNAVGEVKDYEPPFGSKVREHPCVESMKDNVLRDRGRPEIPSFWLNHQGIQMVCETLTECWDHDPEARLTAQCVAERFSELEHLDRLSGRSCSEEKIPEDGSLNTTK
UniProt P51784: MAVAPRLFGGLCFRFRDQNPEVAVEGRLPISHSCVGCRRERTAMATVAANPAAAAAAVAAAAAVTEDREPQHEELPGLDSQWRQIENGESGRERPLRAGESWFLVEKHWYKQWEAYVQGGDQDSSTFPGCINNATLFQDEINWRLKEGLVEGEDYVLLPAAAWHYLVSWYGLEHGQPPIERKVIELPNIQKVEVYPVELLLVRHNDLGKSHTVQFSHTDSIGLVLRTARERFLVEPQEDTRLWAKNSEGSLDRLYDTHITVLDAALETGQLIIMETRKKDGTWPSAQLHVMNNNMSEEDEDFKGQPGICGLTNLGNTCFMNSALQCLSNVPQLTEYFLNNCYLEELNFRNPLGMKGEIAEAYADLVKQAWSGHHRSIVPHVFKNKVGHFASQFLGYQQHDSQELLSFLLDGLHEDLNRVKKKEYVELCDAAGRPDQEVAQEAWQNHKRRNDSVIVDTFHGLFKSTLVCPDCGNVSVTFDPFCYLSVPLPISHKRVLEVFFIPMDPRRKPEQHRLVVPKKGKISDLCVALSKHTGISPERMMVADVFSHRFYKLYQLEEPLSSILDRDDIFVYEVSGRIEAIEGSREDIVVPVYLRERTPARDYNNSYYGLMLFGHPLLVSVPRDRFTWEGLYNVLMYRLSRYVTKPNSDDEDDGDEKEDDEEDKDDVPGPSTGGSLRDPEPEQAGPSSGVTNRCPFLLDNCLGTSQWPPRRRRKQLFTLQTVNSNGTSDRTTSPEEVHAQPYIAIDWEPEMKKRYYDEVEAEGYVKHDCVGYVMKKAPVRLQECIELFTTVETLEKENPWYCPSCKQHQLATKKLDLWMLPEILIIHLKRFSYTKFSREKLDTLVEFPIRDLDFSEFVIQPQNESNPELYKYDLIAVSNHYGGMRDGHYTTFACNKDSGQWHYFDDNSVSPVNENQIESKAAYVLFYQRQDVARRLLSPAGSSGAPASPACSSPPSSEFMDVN

For this test, the target named is TGFβ-1 receptor II (TβRII), endogenous (human (endogenous in MRC5)) (UniProt P37173). The test is described as follows: co-IP; untreated MRC5 cell lysates, immunoprecipitation with IgG or a TβRII antibody overnight at 4 °C, agarose beads, washed three times in PBS, USP11 and TβRI immunoblotting; endogenous proteins. (In general: Immunoblotting shows a protein as a band on a membrane.)

No constants are given. Whether binding was seen depends on the method and setting. In cells and extracts the contact can be indirect. Some binding calls cover weakened binding; strength is not graded here.

As for “USP11, endogenous (from UniProt P51784 1-963) (enzyme)”, the binding entry is recorded as “binds”.
